The values below come from patent US20240158505A1 (published 2024).

T1: Recombinant Human B7-H3 Fc chimera Protein (Rndsystem, Cat #1027-B3-100) (human) (UniProt Q5ZPR3)
T1 sequence (looked up): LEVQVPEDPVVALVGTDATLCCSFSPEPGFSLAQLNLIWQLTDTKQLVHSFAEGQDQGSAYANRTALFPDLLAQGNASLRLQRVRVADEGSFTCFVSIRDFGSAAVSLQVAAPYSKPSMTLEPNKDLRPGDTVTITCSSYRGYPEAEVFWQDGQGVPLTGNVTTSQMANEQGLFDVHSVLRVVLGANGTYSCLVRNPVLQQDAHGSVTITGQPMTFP

B1: #7 antibody (antibody, V domains shown)
VH: EVQLLESGGGLVQPGGSLRLSCAASGFTFSNFWIGWVRQAPGKGLEWVSWINPPGSITSYADSVKGRFTISRDNSKDTLYLQMNSLRAEDTAVYYCAREVGDVLDYWGQGTLVTVSS
VL: QSVLTQPPSASGTPGQRVTISCTGTSSDIGRYNYVSWYQQLPGTAPKLLIYRNTQRPSGVPDRFSGSKSGTSASLAISGLRSEDEADYYCGTWDSSLNAYVFGGGTKLTVL
B2: #1 antibody (antibody, V domains shown)
VH: EVQLLESGGGLVQPGGSLRLSCAASGFTFSSYAMSWVRQAPGKGLEWVSTITGSGGSTYYADSVKGRFTISRDNSKNTLYLQMNSLRAEDTAVYYCARYKSGAFDIWGQGTLVTVSS
VL: EIVLTQSPGTLSLSPGERATLSCRASQGIGNYLGWYQQKPGQAPRLLIYTASSLQSGIPDRFSGSGSGTDFTLTISRLEPEDFAVYYCQQGYSTPSWTFGQGTKVEIK
B3: #6 antibody (antibody, V domains shown)
VH: EVQLLESGGGLVQPGGSLRLSCAASGFTFSTYAISWVRQAPGKGLEWVSSIYYSGYTHYNPSLESRFTISRDNSKNTLYLQMNSLRAEDTAVYYCARGYSGWMDVWGQGTLVTVSS
VL: QSVLTQPPSASGTPGQRVTISCGGNNIGSKSVHWYQQLPGTAPKLLIYDNNKRPSGVPNRFSGSKSGTSASLAISGLRSEDEADYYCAAWDDSLNVPVFGGGTKLTVL
B4: #9 antibody (antibody, V domains shown)
VH: EVQLLESGGGLVQPGGSLRLSCAASGFTFSSYAMNWVRQAPGKGLEWVSTISGSGGQTYYADSVKGRFTISRDNSKNTLYLQMNSLRAEDTAVYYCARWRSIWAFDYWGQGTLVTVSS
VL: B3 VL with G23S, G24D, N59D, A88G, A89T, N95S, V96G
B5: #5 antibody (antibody, V domains shown)
VH: EVQLLESGGGLVQPGGSLRLSCAASGFTFSTYAMSWVRQAPGKGLEWVSAISGSGGSTLYADSVKGRFTISRDNSKNTLYLQMNSLRAEDTAVYYCARGGSATWAFDLWGQGTLVTVSS
VL: QSVLTQPPSASGTPGQRVTISCSGSSSNIGSNYVYWYQQLPGTAPKLLIYRNNQRPSGVPDRFSGSKSGTSASLAISGLRSEDEADYYCGTWDSSLSGVVFGGGTKLTVL
B6: #2 antibody (antibody, V domains shown)
VH: EVQLLESGGGLVQPGGSLRLSCAASGFTFSAYYMIWVRQAPGKGLEWVSITNPSGGVTSYAQKFQGRFTISRDNSKNTLYLQMNSLRAEDTAVYYCARVGGRGFDIWGQGTLVTVSS
VL: EIVLTQSPGTLSLSPGERATLSCHASQGISNYVAWYQQKPGQAPRLLIYDASNRATGIPDRFSGSGSGTDFTLTISHLEPEDFAVYYCQQSYSTLLTFGQGTKVEIK
B7: #3 antibody (antibody, V domains shown)
VH: EVQLLESGGGLVQPGGSLRLSCAASGFTFSTYYMTWVRQAPGKGLEWVSIINPRGGSTSYAEKFQGRFTISRDNSKNTLYLQMNSLRAEDTAVYYCARWNLGMDVWGQGTLVTVSS
VL: EIVLTQSPGTLSLSPGERATLSCRVSQSISSYLNWYQQKPGQAPRLLIYDASHRATGIPDRFSGSGSGTDFTLTISRLEPEDFAVYYCQQYYAPSVTFGQGTKVEIK
B8: #8 antibody (antibody, V domains shown)
VH: EVQLLESGGGLVQPGSSLRLSCAASGFTFSSYWISWVRQAPGKGLEWVSEISPSGNTNYNPSLKSRFTISRDNSKNTLYLQMNSLRAEDTAVYYCAREVGDLLDYWGQGTLVTVSS
VL: QSVLTQPPSASGTPGQRVTISCSGSNIGNNYVSWYQQLPGTAPKLLIYQDSKRPSGVPDRFSGSKSGTSASLAISGLRSEDEADYYCLVWDRSSDHFVFGGGTKLTVL
B9: #4 antibody (antibody, V domains shown)
VH: EVQLLESGGGLVQPGGSLRLSCAASGFTFSSYGMHWVRQAPGKGLEWVSAISGSGTSIYYANSVKSRFTISRDNSKNTLYLQMNSLRAEDTAVYYCARGAGWFDYWGQGTLVTVSS
VL: QSVLTQPPSASGTPGQRVTISCSGSTSNIGSNTVNWYQQLPGTAPKLLIYGKNIRPNGVPDRFSGSKSGTSASLAISGLHSEDEADYYCQSYDSSLSGWVFGGGTKLTVL

Residue numbers refer to the chain shown, from its start. No constants are given. Whether binding was seen depends on the method and setting. Some binding calls cover weakened binding; strength is not graded here. Where a sequence is shown, tags or fusion partners need not be part of it.

The target in this assay is T1, Recombinant Human B7-H3 Fc chimera Protein (Rndsystem, Cat #1027-B3-100) (human). Kind of assay: ELISA, plate coated with recombinant human B7-H3, anti-HA tag HRP detection.
Take B1: the binding result is recorded as “binds”.

In the case of B2, the binding result is “binds”.

B3: the binding result is “binds”.

As for B4, the binding result is “binds”.

Regarding B5, the binding entry was “binds”.

Regarding B6, the binding entry is “binds”.

B7: the binding result is on record as “binds”.

As to B8, the binding result was “binds”.

For B9, the binding result is “binds”.
